Experimental data from PubChem BioAssay AID2417 (National Center for Advancing Translational Sciences (NCATS), 2010).
About 4,300 (3.1%) of roughly 140,000 compounds were called active. The inconclusive results got no clear call from the source; some entries with a clear call stand among them for comparison.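 The calls were made as follows: active = readout at or below -70, meaning at least 70% loss of cells showing the perinucleolar compartment, a nuclear body marking cancer cells; inconclusive = readout between -30 and a set limit; inactive = the rest.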

experiment: High Content Assay for Compounds that inhibit the Assembly of the Perinucleolar Compartment; settings: PC3M PTB-GFP, PNC prevalence imaging, 16 h; at 10 µM; hits give low values;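 also: plate controls were DMSO wells for no effect and camptothecin positive control wells for full effect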
How it was run: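 PC3M cells stably expressing PTB-GFP, 750–1000 cells/well, treated 16 h at 37 °C with compound (23 nl of library stock), in duplicate. After paraformaldehyde fixation and Hoechst stain, imaged at 20x; PNC prevalence scored by image analysis.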

Compound	activity change (PNC), negative = inhibition
C/C(=N/Nc1nc(-c2ccccc2)cc(-c2ccccc2)n1)c1ccc(N)cc1	inactive: -3%
O=C1NC(c2ccccc2)C(C(=O)c2cccs2)=C1O (stereo not given)	active: -107%
COc1cc(C(=O)N2CCN(c3cccc(C)c3C)CC2)cc(OC)c1OC	active: -122%
O=C(NCc1ccccc1)c1nc2c(nnn2Cc2cccc(Cl)c2)c(=O)[nH]1	inactive: -27.5%
CCn1c(CCNC(=O)c2ccc(OC)c(OC)c2)nc2ccccc21	inconclusive: -50.7%
COC(=O)c1cc2ccsc2n1Cc1ccccc1F	inconclusive: -38.8%
COc1ccc2c(CCNC(=O)c3ccco3)c[nH]c2c1	active: -114%
O=C(CCCNS(=O)(=O)c1cccc2nsnc12)NCc1ccc(F)cc1	inactive: 33.7%
O=C(NC(=S)Nc1ccc(NC(=O)c2cccs2)cc1)c1ccco1	inactive: -24.4%
COc1ccccc1C(=O)NNC(=O)c1ccccc1F	inconclusive: -30.2%
CC1(C)N=C(c2ccc(Cl)cc2)C(=O)N1	inconclusive: -32.1%
O=C(C1CCC(CNc2c(N3CCCCC3)c(=O)c2=O)CC1)N1CCc2ccccc2C1 (stereo not given)	inactive: -26.7%
Cn1c(C(=O)NCCCN2CCOCC2)cc2c(=O)n(C)c3ccccc3c21	inconclusive: -30.2%
COc1ccc(-c2nn(-c3ccccc3)cc2C(=O)Nc2nccs2)cc1OC	inconclusive: -36.5%
COc1ccccc1NC(=O)Cn1ncc2c1-c1ccccc1OC2	inconclusive: -35.4%
CCOC(=O)N/N=C/C=C/c1ccccc1	inactive: -12.8%
c1ccc(CSc2ncnc3c2sc2nc(N4CCOCC4)c4c(c23)CCCC4)cc1	inconclusive: -41.2%
O=S(=O)(N/N=C/c1ccccc1OCc1ccc(Cl)cc1)c1ccccc1	inconclusive: -58.9%
COc1cc(C(=O)N(CCCO)Cc2cc3ccc(C)c(C)c3[nH]c2=O)cc(OC)c1OC	inconclusive: -45.8%
O=C(c1cn(-c2ccccc2)nc1-c1cccs1)N1CCN(c2ccccc2)CC1	active: -83.1%
COc1ccc(OC)c(NC(=O)Cn2cc(C#N)c3cc(Br)ccc32)c1	inconclusive: -36%
CCOC(=O)c1ccc(N2N=C(C)/C(=C/C=C/c3ccco3)C2=O)cc1	inactive: 29%
O=C(NCCc1c[nH]c2ccccc12)C(=O)NCC1OCCCN1S(=O)(=O)c1ccc(F)cc1 (stereo not given)	inactive: -11.5%

Taken from above, three compounds:
Compound	activity change (PNC), negative = inhibition
COc1cc(C(=O)N2CCN(c3cccc(C)c3C)CC2)cc(OC)c1OC	active: -122%
O=C(NCc1ccccc1)c1nc2c(nnn2Cc2cccc(Cl)c2)c(=O)[nH]1	inactive: -27.5%
CCn1c(CCNC(=O)c2ccc(OC)c(OC)c2)nc2ccccc21	inconclusive: -50.7%

(more compounds)

Compound	activity change (PNC), negative = inhibition
COc1ccccc1N(CC(=O)NCc1ccccc1)C(=O)CCC(=O)Nc1ccccn1	active: -100%
CCN1CC(c2ccccc2)C(c2ccc(Cl)cc2)=N1 (stereo not given)	inconclusive: -50.8%
O=C(CSc1ccccn1)N/N=C/C=C/c1ccccc1	inactive: 3.05%
Cc1ccc(N2CC(C(=O)Nc3ccc4c(c3)OCCO4)CC2=O)cc1 (stereo not given)	inconclusive: -70.7%
Cc1ccc(-c2n[nH]c(=S)n2-c2ccccc2)cc1	inactive: 12.6%
CCOC(=O)c1c(NC(=O)c2cc3n(n2)C(C(F)(F)F)CC(c2cccs2)N3)sc(C)c1C (stereo not given)	inconclusive: -33.3%
O=C(c1nn2c(C(F)(F)F)cc(-c3cccs3)nc2c1Br)N1CCCc2ccccc21	inconclusive: -36%
Cc1ccc(-c2nnc(Nc3ccc(CC(N)=O)cc3)c3ccccc23)cc1	inconclusive: -42.6%
CCOc1cc(/C=N/NC(N)=O)cc(Br)c1OCc1ccccc1F	active: -92.2%
c1cnc2ccc(C(c3nnnn3C3CCCC3)N3CCSCC3)cc2c1 (stereo not given)	active: -119%
CSc1cccc(NC(=O)/C=C/c2ccccc2)c1	inactive: 61%
CCc1ccc(N(C(=O)C(F)(F)F)C(C(=O)NC2CCCCC2)c2ccncc2)cc1 (stereo not given)	inconclusive: -72.9%
CCOC(=O)c1c(C)[nH]c(C(=O)N/N=C/c2ccc(Br)cc2)c1C	active: -113%
Fc1cccc(C[n+]2csc3ccccc32)c1	inactive: 32.4%
O=C(c1ccc(S(=O)(=O)N2CCOCC2)cc1)N1CCN=C1SCc1cccnc1	inconclusive: -32.5%
COc1ccc(CCN(C)CCCC(C#N)(c2cc(OC)c(OC)c(OC)c2)C(C)C)cc1OC (stereo not given)	active: -115%
Cc1ccc(S(=O)(=O)Nc2cc3c(C(=O)Nc4ccccc4)c(C)oc3c3ccccc23)cc1	inactive: -9.62%
Cc1cccc(NC(=O)Cn2cnc3sc(C)c(S(=O)(=O)N4CCC(C)CC4)c3c2=O)n1	active: -100%
COc1ccccc1OCc1ccc(C(=O)OCC2CCCO2)o1 (stereo not given)	inconclusive: -53.3%
CC(Sc1nc2cc([N+](=O)[O-])ccc2n1-c1ccc(F)cc1)C(=O)NCc1ccc2c(c1)OCO2 (stereo not given)	inactive: -24.4%
COc1cc(NS(=O)(=O)c2ccc(F)cc2)c(C(=O)O)cc1OC	inconclusive: -36.1%
N=c1c2c(-c3ccccc3)c(-c3ccccc3)n(Cc3ccccc3)c2ncn1CCO	inconclusive: -33.5%
O=S(=O)(c1ccc(NC2CCCCC2)cc1)N1CCOCC1	inconclusive: -40.8%

Compound	activity change (PNC), negative = inhibition
CCOC(=O)c1c(-c2cccs2)csc1NC(=O)COC(=O)c1c(C)noc1C	inconclusive: -50.4%
O=C(COC(=O)c1cc(S(=O)(=O)N2CCc3ccccc3C2)ccc1Cl)NCc1ccco1	inactive: -27.8%
Cc1ccc(S(=O)(=O)N/N=C/c2cnn(C)c2C)cc1	inactive: 10.5%
Cn1cc(Cl)c(-c2n[nH]c(=S)n2-c2ccc(F)cc2)n1	inactive: -23.5%
COc1ccccc1Nc1nc(N)nc(-c2cc3ccccc3o2)n1	inconclusive: -52.7%
CCCN1CCC(=NNc2ccc(S(=O)(=O)N3CCOCC3)cc2[N+](=O)[O-])CC1	inconclusive: -39.6%
O=C(CC(NCCc1ccccc1)C(=O)O)Nc1ccc(O)cc1 (stereo not given)	inconclusive: -53.2%
c1ccc(-n2c(-c3cccs3)nc3nc4ccccc4nc32)cc1	inconclusive: -71.8%
COC(=O)c1cc(C(=O)Nc2nnc(CC(C)C)s2)cc([N+](=O)[O-])c1	inconclusive: -49.7%
Cc1ccc(NC(=O)c2cc(-c3ccccc3)nn2-c2ccccc2)c(Br)c1	inconclusive: -38.8%
Cc1c(C(=O)O)cccc1-c1ccc(/C=N/Nc2ccc(Br)cc2)o1	inactive: 2.03%
CCOC(=O)Cn1c(-c2cccnc2Cl)nc2cc(C)c(C)cc21	inconclusive: -45.6%
O=C(NCc1ccccc1)c1cccc(OCC(=O)N2CCN(C(=O)c3ccco3)CC2)c1	inactive: 39.6%
Cn1c(SCC(=O)N/N=C/C=C\c2ccco2)nc2ccccc21	inconclusive: -39.8%
O=C1CC(c2ccco2)Sc2nc3ccccc3n21 (stereo not given)	inconclusive: -52.8%
Cc1ccc(-c2nnn(CC(=O)N(c3ccccc3)C(C(=O)NC(C)(C)C)c3cccs3)n2)o1 (stereo not given)	inconclusive: -32.7%
CNC(=O)CN1C(=O)NC2(CCc3ccccc32)C1=O (stereo not given)	inconclusive: -31.7%
CSc1sccc1/C=N/NC(=O)c1ccncc1	inconclusive: -71.5%
NC(=O)c1ccc(-n2nnnc2SCc2ccccc2)cc1	inactive: 2.09%
CC1=C(C(=O)OC(C)C)C(c2coc3ccccc3c2=O)C2=C(CCCC2=O)N1 (stereo not given)	active: -81.5%
O=S(=O)(c1ccccc1)N1CCC(N2CCCCCC2)CC1	inconclusive: -43.2%
C/C=C/C=C/C(=O)Nc1nccs1	active: -116%
COC(=O)COc1cccc(NC(=O)COc2ccccc2)c1	inconclusive: -32.2%

Compound	activity change (PNC), negative = inhibition
CCOC(=O)c1c(NC(=O)C2(C)Cc3ccccc3C(=O)O2)sc2c1CCCC2 (stereo not given)	inconclusive: -45%
CCOC(=O)C1=C(CSc2n[nH]c(N)n2)NC(=O)NC1C (stereo not given)	inactive: 52.1%
CCCCOC(=O)Cn1c(=O)c2c(nc3n2CCCCN3c2ccc(C)cc2)n(C)c1=O	active: -127%
O=C(Cn1cnc2c(nnn2Cc2ccccc2)c1=O)NCc1ccco1	inconclusive: -39.9%
Cc1n[nH]c(=O)nc1NCc1ccccc1	inconclusive: -30.5%
O=[N+]([O-])c1ccccc1C1Nc2cccc3cccc(c23)N1	inconclusive: -33.5%
CCC(c1nnc(SCC(=O)Nc2ccc(C(C)=O)cc2)n1C1CCCCC1)N(C)C (stereo not given)	inactive: 0.774%
CC1(C)CC(=O)c2sc(NC(=O)CCS(=O)(=O)c3ccccc3)nc2C1	inconclusive: -52.7%
COCCNC(=S)N/N=C/c1ccc(N2CCOCC2)cc1	inconclusive: -40.7%
Cn1c(=O)c(Nc2ccc(O)cc2)c2c3c(cccc31)C(=O)c1ccccc1-2	inactive: -17.7%
CCOCCn1c(SCCCc2ccccc2)nc2c1c(=O)[nH]c(=O)n2C	inconclusive: -34.7%
Cc1nc(CSc2ccc(Cl)cc2)cc(N2CCOCC2)n1	inconclusive: -46.5%
N#CC1=C(N)Oc2cc(N)ccc2C1c1ccc(F)cc1 (stereo not given)	inconclusive: -42.4%
O=C(CSc1nnc(NC(=O)C2CCC2)s1)NC1CC1	inconclusive: -74.1%
Cc1nc2ccccn2c1C(=O)N/N=C/c1cc(C)n(-c2ccc(Cl)cc2)c1C	active: -100%
O=C(CSc1nc2[nH]ncc2c(=O)[nH]1)N1CCCC1	inconclusive: -30.3%
Cc1nc2cc(-c3cccc(F)c3)nn2c(N2CCN(C(=O)c3ccco3)CC2)c1C	inconclusive: -32.3%
COc1ccccc1NC(=S)NCc1cccnc1	inconclusive: -40.8%
CN(C(=S)Nc1ccc(Oc2ccccc2)cc1)c1ccc(O)cc1	inconclusive: -62.4%
Nc1nc(-c2cccc(NS(=O)(=O)c3ccccc3)c2)cs1	inactive: 11.2%
COc1ccc2[nH]c(=O)c(CN(Cc3nnnn3Cc3ccccc3)CC3CCCO3)cc2c1 (stereo not given)	inactive: 28.3%
